# Reference: the supplement of paper PMC10727501
# The list shows a part of the results. This data set is noisy: repeats of one test often differ as much as different tests do.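 Free-swimming zebrafish larvae were assessed for O-bend response probability to dark flashes (naive: first five; training: remaining flashes across four 60-flash blocks; test: later 60-flash block) and for OMR turning toward alternating leftward/rightward LED motion. Six treated larvae were compared against sixty 0.1% DMSO controls; hits required |SSMD|≥2.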
# Assays:
# Details in all cases: 10 µM; pre-incubation: 30-90 min
# [1] = system: Danio rerio larvae (5 dpf, TLF); assay: OMR-Perf (SSMD vs DMSO vehicle); higher = higher than vehicle (e.g. higher dark-flash O-bend response probability, or better optomotor performance)
# [2] = system: Danio rerio larvae (5 dpf, TLF); assay: Prob-Test (SSMD vs DMSO vehicle); higher = higher than vehicle (e.g. higher dark-flash O-bend response probability, or better optomotor performance)
# [3] = system: Danio rerio larvae (5 dpf, TLF); assay: Prob-Naive (SSMD vs DMSO vehicle); higher = higher than vehicle (e.g. higher dark-flash O-bend response probability, or better optomotor performance)
# [4] = system: Danio rerio larvae (5 dpf, TLF); assay: Prob-Train (SSMD vs DMSO vehicle); higher = higher than vehicle (e.g. higher dark-flash O-bend response probability, or better optomotor performance)
SMILES,OMR-Perf [1],Prob-Test [2],Prob-Naive [3],Prob-Train [4]
COC(=O)Nc1nc2ccc(C(=O)c3ccc(F)cc3)cc2[nH]1 [Flubendazole],-0.0407,-0.132,0.471,-0.086
O=c1c(O)c(-c2ccc(O)cc2)oc2cc(O)cc(O)c12 [Kaempferol],0.223,0.0426,0.0816,-0.782
Oc1ccc([C@H]2COc3cc(O)ccc3C2)cc1 [Equol],1.16,0.648,0.0385,0.649
COC(=O)[C@@H]1[C@H]2C[C@H]3c4[nH]c5ccccc5c4CCN3C[C@@H]2CC[C@@H]1O.Cl [Yohimbine HCl],-0.357,-0.736,0.516,0.321
CCN1CC(CCN2CCOCC2)C(c2ccccc2)(c2ccccc2)C1=O.Cl.O (centres undefined) [Doxapram HCl],0.269,0.184,0.124,-0.5
CCN1CCN(Cc2ccc(-c3cc4c(N[C@H](C)c5ccccc5)ncnc4[nH]3)cc2)CC1,-0.182,-0.0468,-0.0535,-0.36
Nc1nc2c(ncn2COCCO)c(=O)[nH]1 [Aciclovir],0.0884,-0.337,-0.253,-0.00626
CCO.N#CC(=C(/N)Sc1ccccc1N)/C(C#N)=C(\N)Sc1ccccc1N,0.0753,-0.873,0.255,-1.64
Nc1ncnc2c1ncn2[C@@H]1O[C@H](CO)[C@@H](O)[C@@H]1O [Vidarabine],0.627,0.678,0.493,0.717
O=C(Cc1ccc(-c2ccc(OCCN3CCOCC3)cc2)cn1)NCc1ccccc1,-0.961,-2.06,-0.397,-0.69
CCOC(=O)N1c2ccc(C(F)(F)F)cc2[C@H](N(Cc2cc(C(F)(F)F)cc(C(F)(F)F)c2)C(=O)OC)C[C@H]1CC [Torcetrapib],-0.262,-0.273,0.0846,-0.419
O=C(/C=C/c1ccc(CN(CCO)CCc2c[nH]c3ccccc23)cc1)NO [LAQ824 (Dacinostat)],-0.199,0.485,0.233,0.258
N#C[C@@H]1C[C@@H]2C[C@H]2N1C(=O)[C@@H](N)C12CC3CC(CC(O)(C3)C1)C2 [Saxagliptin],-0.373,0.31,0.0343,-0.0638
COc1ccc(C[C@H](C)NC[C@@H](O)c2ccc(O)c(NC=O)c2)cc1.COc1ccc(C[C@H](C)NC[C@@H](O)c2ccc(O)c(NC=O)c2)cc1.O=C(O)/C=C/C(=O)O [Formoterol Hemifumarate],-0.0404,-0.653,0.129,-0.111
C[C@@H]1C(SC2CN(C3=NCCS3)C2)=C(C(=O)OCOC(=O)C(C)(C)C)N2C(=O)[C@H]([C@@H](C)O)[C@H]12 [Tebipenem Pivoxil],-0.587,0.0631,0.402,0.309
Cc1ccc(-c2cc(C(F)(F)F)nn2-c2ccc(S(N)(=O)=O)cc2)cc1 [Celecoxib],-0.804,-1.91,-0.123,-1.93
O=C1N=C([O-])NC1(c1ccccc1)c1ccccc1.[Na+] [Phenytoin sodium],-0.625,0.591,-0.435,0.435
Cc1nc(C(=O)NCC(=O)O)c(O)c2ccc(Oc3ccccc3)cc12,0.164,-0.0665,0.489,0.335
CS(=O)(=O)O.C[C@H](NCc1ccc(OCc2cccc(F)c2)cc1)C(N)=O [Safinamide Mesylate],0.347,-0.158,0.584,-0.187
Cl.NCCS [Cysteamine HCl],-0.321,-0.351,0.585,0.0487
COC(=O)N[C@H](C(=O)N1CCC[C@H]1c1ncc(-c2ccc(-c3ccc(-c4cnc([C@@H]5CCCN5C(=O)[C@@H](NC(=O)OC)C(C)C)[nH]4)cc3)cc2)[nH]1)C(C)C,-0.642,0.0802,0.464,-0.0817
Cl.OC(CCN1CCCC1)(c1ccccc1)C1CCCCC1 (centres undefined) [Procyclidine HCl],0.0954,-0.0262,-0.0763,-0.491
C#C[C@]1(O)CC[C@H]2[C@@H]3CCC4=CC(=O)CC[C@@H]4[C@@H]3CC[C@@]21C [Norethindrone],-0.467,-0.738,-1.01,-1.41
O=c1cc(N2CCOCC2)oc2c1ccc1ccccc12,0.773,0.223,0.538,0.0366
CNC(=O)c1nn(C)c2c1C(C)(C)Cc1cnc(Nc3ccc(N4CCN(C)CC4)cc3)nc1-2,-0.479,-0.379,-0.0697,-0.171
Cn1c(=O)c(F)c(Nc2ccc(I)cc2F)c2c(=O)n(C[C@@H](O)CO)cnc21,-0.827,-1.87,0.515,-1.82

# Full records from above:
# COC(=O)[C@@H]1[C@H]2C[C@H]3c4[nH]c5ccccc5c4CCN3C[C@@H]2CC[C@@H]1O.Cl [Yohimbine HCl] is listed as OMR-Perf [1]: -0.357; Prob-Test [2]: -0.736; Prob-Naive [3]: 0.516; Prob-Train [4]: 0.321
# CCN1CCN(Cc2ccc(-c3cc4c(N[C@H](C)c5ccccc5)ncnc4[nH]3)cc2)CC1 is listed as OMR-Perf [1]: -0.182; Prob-Test [2]: -0.0468; Prob-Naive [3]: -0.0535; Prob-Train [4]: -0.36
